“And” between values parts separate entries of the source, which are not always exact repeats. Equal entries are not always repeated. Marks after values point to notes of the source that are not given here.
Tested on: Large White/Landrace parity 1 sows
Assay: Paylean (ractopamine) treatment during first lactation: maternal catabolism, post-weaning fertility, piglet growth, milk composition (Example 2)
Format: in vivo, pig
Experimental: This experiment was conducted at the University of Adelaide's Pig and Poultry Production Institute (PPPI) at Roseworthy, South Australia, with approval from the animal ethics committees of Primary Industries and Resources South Australia and The University of Adelaide. The experiment used sixty Large White/Landrace parity 1 sows, and was conducted in four replicates: replicates one and two were run in October and November 2006, respectively (spring); and replicates three and four were run in March and April 2007, respectively (autumn).
At entry into the farrowing shed, Sixty Large White/Landrace first parity sows were weighed, and P2 backfat and maximum eye muscle depth (MMD) measured. Sows were then stratified according to both liveweight and body composition and allocated to one of two treatment groups (n=30 sows). One group (Control) received a standard lactation diet (0.71 g avail. lys/MJ DE) throughout lactation, whilst the other group (Ractopamine) received the same standard lactation diet but supplemented with ractopamine at 10 parts per million (ppm) from days 1-13 of lactation and 20 ppm from day 14 of lactation until mating. Dietary treatments commenced on day 1 of lactation (Day 0=first 24 hours after farrowing). During lactation, the amount of feed offered each day was stepped up gradually, reaching 6 kg/day by day 7 of lactation, and was fed over three meals per day, with daily feed disappearance recorded for each sow. Weaning took place 21 days after farrowing, and between weaning and first Al sows received 3 kg/day of their respective diets. Sows were weighed, and P2 backfat and MMD measured on days 1, 7, 14 and 20 of lactation. Gilts were weighed prior to being fed, and P2 backfat and MMD were measured over the last rib 65 mm down from the vertebrae by an experienced commercial operator using a 3.5 MHz linear probe (Ausonics Impact). Litter size was standardised to 9 piglets within 24 hours of farrowing, with piglets receiving only maternal milk as their feed source and weighed on days 1, 7, 13 and 20 of their mother's lactation. Maternal milk samples were collected on days 3, 13 and 20 of lactation and analysed for fat and protein content.
After weaning, sows were housed in groups of three or four. Boar exposure commenced on the fourth day after weaning, consisted of 15 minutes of full, physical boar contact and was conducted in a detection mating area (DMA). At their first oestrus after weaning, sows two artificial inseminations (AIs), 24 hours apart.
All Als took place in the DMA, with fence-line contact with a boar during the procedure. Inseminations were performed as per standard industry practice using disposable spirette catheters, with each insemination consisting of an 80 ml dose of fresh, extended semen (3×10^9 spermatozoa per inseminate; <4 days old). Semen used for this experiment was purchased from a commercial artificial insemination collection centre (SABOR Pty. Ltd, Clare, South Australia). Sows not detected in oestrus by 10 days after weaning were described as anoestrous.

CC(CCc1ccc(O)cc1)NCC(O)c1ccc(O)cc1 (racemic) [Ractopamine, ractopamine]
Milk fat (g/l) (day 3 of lactation): 80.4^c g/l | Milk protein (day 3 of lactation): 45.7 g/L | Milk fat (g/l) (day 13 of lactation): 64.7^a g/l | Milk protein (day 13 of lactation): 39 g/L | Milk fat (g/l) (day 20 of lactation): 65.8^a g/l | Milk protein (day 20 of lactation): 39.9 g/L | Milk fat (g/l) (pooled across day): tended (P=0.064) to be higher and 70.3* g/l | Milk protein (g/l) (pooled across day): significantly lower and 41.5^g g/l
